The values below come from patent publication EP1988168A1 (Max-Planck-Gesellschaft zur Förderung der Wissenschaften …, dated 2008).

By UniProt entry, the sequences of proteins in these tests, tags left out. Where a name states a change or a piece, a line headed by the entry shows the natural chain unless it says otherwise.
UniProt Q44176: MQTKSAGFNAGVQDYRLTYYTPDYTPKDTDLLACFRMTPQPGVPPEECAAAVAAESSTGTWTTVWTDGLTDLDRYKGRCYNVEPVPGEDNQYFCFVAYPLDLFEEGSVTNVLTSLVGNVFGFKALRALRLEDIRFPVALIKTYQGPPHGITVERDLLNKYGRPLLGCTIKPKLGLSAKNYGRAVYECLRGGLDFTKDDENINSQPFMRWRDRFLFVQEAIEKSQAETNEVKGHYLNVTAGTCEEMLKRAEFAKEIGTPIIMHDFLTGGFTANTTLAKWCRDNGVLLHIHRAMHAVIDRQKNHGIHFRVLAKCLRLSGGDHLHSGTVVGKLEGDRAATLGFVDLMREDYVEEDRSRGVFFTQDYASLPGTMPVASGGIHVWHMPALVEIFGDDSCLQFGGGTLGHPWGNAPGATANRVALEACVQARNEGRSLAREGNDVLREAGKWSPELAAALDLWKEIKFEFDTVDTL

These are yes or no findings as the source states them, for the method shown. For some of these results: In cells and extracts the contact can be indirect. Some binding calls cover weakened binding; strength is not graded here. Where a sequence is shown, tags or fusion partners need not be part of it.

The target of test [1] is Syn7002-RbcL(F462A) (Synechococcus sp. PCC7002) (UniProt Q44176). The test can be described thus: co-immunoprecipitation with anti-FLAG beads.
Test [2] deals with Syn7002-RbcL(F464A) (Synechococcus sp. PCC7002) (UniProt Q44176). The experiment in a line: co-immunoprecipitation with anti-FLAG beads.
The target in test [3] is T1, Syn7002-RbcL (Synechococcus sp. PCC7002, UniProt Q44176 1-470).
T1 construct: Stood in the assays as monomers, dimers, assembly intermediates or RbcL8 core complex, depending on the experiment; also called wildtype RbcL; RbcL8
The test can be described thus: Native-PAGE and co-immunoprecipitation with anti-FLAG beads.

Test [4] deals with Syn6301-RbcL8 (Synechococcus sp. PCC6301) (UniProt P00880). The experiment in a line: incubation of purified proteins, gel filtration and immunoblot. In general terms: In gel filtration, larger molecules generally elute earlier.
For test [5], the target named is T1, Syn7002-RbcL. The test can be described thus: pulse-chase in vitro translation, immunoprecipitation with anti-FLAG antibody.
Test [6] concerns the target Syn6301-RbcL8 (Synechococcus sp. PCC6301) (UniProt P00880). The test can be described thus: co-purification on Ni-NTA-agarose, MonoQ and gel filtration; Native-PAGE.
For test [7], the target named is T1, Syn7002-RbcL. The experiment in a line: co-immunoprecipitation with anti-FLAG antibody from E. coli extract.

B1: AnaCA-RbcXFLAG (other, Anabaena sp. CA)
chain: MDYKDDDDKAGMNLKQIAKDTAKTLQSYLTYQALRTVLAQLGETNPPLALWLHNFSAGKVQDGEKYIEELFLEKPDLALRIMTVREHIAEEIAEFLPEMVVTGIQQANMEKRRQHLERMTQVSLSHPSPESEQQQFSDPDWDNLAS
notes: also called FLAG-tagged AnaCA-RbcX
With B1, the binding entry (in test [1]; in test [2]; with Syn7002-RbcL [3]; in test [4]; in the test with Syn7002-RbcL [5]) was “binds” throughout.

B2: AnaCA-RbcX (other, Anabaena sp. CA, UniProt Q44212 1-135, looked up)
chain: MNLKQIAKDTAKTLQSYLTYQALRTVLAQLGETNPPLALWLHNFSAGKVQDGEKYIEELFLEKPDLALRIMTVREHIAEEIAEFLPEMVVTGIQQANMEKRRQHLERMTQVSLSHPSPESEQQQFSDPDWDNLAS
notes: also called RbcX from Anabaena sp; CA
Take B2: the binding result in test [6] is reported as “binds”.

B3: Syn7002-RbcX(Y17A)FLAG (protein, Synechococcus sp. PCC7002)
chain: MDYKDDDDKAGMEFKKVAKETAITLQSALTYQAVRLISQQLSETNPGQAIWLGEFSKRHPIQESDLYLEAMMLENKELVLRILTVRENLAEGVLEFLPEMVLSQIKQSNGNHRRSLLERLTQVDSSSTDQTEPNPGESDTSEDSE
Consider B3, for which, in the test with Syn7002-RbcL [7], the binding entry is “binds”.
